PubChem BioAssay AID1259424, University of Nebraska Medical Center – 2018

Test: 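Seek colon cancer survival genes behaving like KSR1, using a six-gene signature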 (primary screen)
System: human HCT116 colon cancer cells
Reagents: siRNA pool against human genes, 50 nM
Read-out: 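Six signature mRNAs by branched-DNA multiplex assay, scaled to two housekeeping genes and non-targeting median, log2; matched to mean KSR1 knockdown profile by Pearson correlation and euclidean distance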
Direction: mean correlation with KSR1 profile: higher = expression change more like KSR1 knockdown; mean distance from KSR1 profile: higher = expression change less like KSR1 knockdown
The whole screen tested about 14,000 reagents; below is an unselected part. 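Higher correlation or smaller distance means closer resemblance to KSR1 loss; control wells, including KSR1 knockdowns, recur on many plates.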 Not all columns of the deposit are shown. The record does not give: the time to read-out.

| gene | PubChem SID | mean correlation with KSR1 profile | mean distance from KSR1 profile |
| --- | --- | --- | --- |
| FXYD4 | SID364004823 | -0.439 | 6.23 |
| ABCA7 | SID364001411 | 0.339 | 1.49 |
| KCNE2 | SID364004808 | -0.211 | 2.37 |
| SLITRK2 | SID364004040 | 0.839 | 0.949 |
| ZNF668 | SID364002992 | 0.431 | 1.3 |
| SLC5A6 | SID364002004 | 0.0869 | 1.75 |
| SPANXA2 | SID364004665 | 0.17 | 5.45 |
| NFE2L3 | SID363995283 | -0.0447 | 1.74 |
| CLCA4 | SID363998075 | -0.501 | 1.83 |
| SLC45A3 | SID364004319 | 0.295 | 4.54 |
| OAZ3 | SID363999929 | -0.267 | 2.43 |
| KMT5C | SID364004127 | -0.719 | 3.59 |
| PRO2964 (retired record) | SID364005607 | -0.497 | 2.04 |
| SET | SID363994161 | 0.241 | 4.46 |

2 neighbouring entries from above, for reference:
| gene | PubChem SID | mean correlation with KSR1 profile | mean distance from KSR1 profile |
| --- | --- | --- | --- |
| SLC45A3 | SID364004319 | 0.295 | 4.54 |
| OAZ3 | SID363999929 | -0.267 | 2.43 |

The listing continues.
| gene | PubChem SID | mean correlation with KSR1 profile | mean distance from KSR1 profile |
| --- | --- | --- | --- |
| PCDHGC3 | SID363993757 | 0.164 | 1.67 |
| IKZF5 | SID364002452 | -0.374 | 3.01 |
| REEP1 | SID364002601 | -0.37 | 2.41 |
| FRS3 | SID363997440 | 0.894 | 0.381 |
| EFNA3 | SID363995894 | -0.47 | 2.82 |
| DHX37 | SID364004114 | 0.365 | 2.02 |
| HEY2 | SID363998181 | 0.155 | 1.98 |
| SLC2A2 | SID363991672 | 0.212 | 1.38 |
| COQ8A | SID364001592 | 0.405 | 2.66 |
| SPC25 | SID364001771 | -0.18 | 2.33 |
| CEP57 | SID363999029 | 0.419 | 1.39 |
| RSPRY1 | SID364004530 | 0.0533 | 1.86 |
| PGAP2 | SID363998901 | -0.253 | 2.26 |
| SLC1A3 | SID363995176 | -0.732 | 1.55 |
| WDR47 | SID363999232 | -0.503 | 1.63 |
| CCDC68 | SID364003318 | -0.81 | 2.9 |
| DCTN2 | SID363997211 | -0.292 | 2.2 |
| WASHC3 | SID363999828 | -0.647 | 1.95 |
| TSSC4 | SID363996592 | 0.308 | 1.27 |
| PSG2 | SID364003560 | 0.231 | 1.37 |
